Reference: the supplement of paper PMC10849652
The other results are listed elsewhere or left out.

Amino acid sequences for entries named in this document (tags omitted). A change or cut given only in a name is not applied to a line headed by its entry.
UniProt Q8N0Z3: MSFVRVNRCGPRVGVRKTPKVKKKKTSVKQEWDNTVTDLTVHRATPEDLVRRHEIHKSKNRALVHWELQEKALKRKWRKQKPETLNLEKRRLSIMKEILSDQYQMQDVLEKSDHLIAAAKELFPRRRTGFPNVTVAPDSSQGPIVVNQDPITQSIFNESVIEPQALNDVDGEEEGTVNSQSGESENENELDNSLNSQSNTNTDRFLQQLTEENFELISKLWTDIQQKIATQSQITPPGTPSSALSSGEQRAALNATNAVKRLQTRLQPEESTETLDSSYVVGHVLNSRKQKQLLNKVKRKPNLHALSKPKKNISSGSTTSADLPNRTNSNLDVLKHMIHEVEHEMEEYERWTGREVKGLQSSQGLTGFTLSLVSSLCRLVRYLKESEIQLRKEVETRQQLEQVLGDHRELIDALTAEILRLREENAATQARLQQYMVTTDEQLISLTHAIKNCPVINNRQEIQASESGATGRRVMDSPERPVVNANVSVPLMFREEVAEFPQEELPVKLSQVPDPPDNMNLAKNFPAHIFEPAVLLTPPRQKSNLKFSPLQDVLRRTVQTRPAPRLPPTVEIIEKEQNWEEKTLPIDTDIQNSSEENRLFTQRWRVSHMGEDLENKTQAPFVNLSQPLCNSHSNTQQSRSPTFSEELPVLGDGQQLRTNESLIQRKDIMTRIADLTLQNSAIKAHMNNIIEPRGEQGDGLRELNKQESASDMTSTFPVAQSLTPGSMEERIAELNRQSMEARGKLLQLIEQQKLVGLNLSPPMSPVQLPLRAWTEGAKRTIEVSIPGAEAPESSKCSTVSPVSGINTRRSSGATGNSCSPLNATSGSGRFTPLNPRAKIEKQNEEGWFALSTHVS
UniProt Q5T280: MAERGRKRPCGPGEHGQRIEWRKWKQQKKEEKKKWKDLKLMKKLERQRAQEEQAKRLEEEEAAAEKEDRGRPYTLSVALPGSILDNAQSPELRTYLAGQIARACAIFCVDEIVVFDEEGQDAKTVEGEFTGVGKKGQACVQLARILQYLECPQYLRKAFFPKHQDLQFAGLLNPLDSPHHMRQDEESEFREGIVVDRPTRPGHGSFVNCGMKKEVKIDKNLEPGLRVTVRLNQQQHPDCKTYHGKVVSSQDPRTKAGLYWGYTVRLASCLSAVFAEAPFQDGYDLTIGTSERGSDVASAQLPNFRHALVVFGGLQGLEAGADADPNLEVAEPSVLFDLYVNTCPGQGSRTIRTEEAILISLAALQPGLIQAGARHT
UniProt P49675, whole entry, looked up: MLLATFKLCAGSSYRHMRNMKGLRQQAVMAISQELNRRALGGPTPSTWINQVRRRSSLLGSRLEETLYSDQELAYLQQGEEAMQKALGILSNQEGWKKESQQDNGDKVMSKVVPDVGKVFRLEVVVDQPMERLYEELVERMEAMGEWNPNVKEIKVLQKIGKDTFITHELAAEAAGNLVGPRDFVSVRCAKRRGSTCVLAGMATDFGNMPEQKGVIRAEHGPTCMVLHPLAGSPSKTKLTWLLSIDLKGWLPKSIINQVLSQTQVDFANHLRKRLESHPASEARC
UniProt Q16842: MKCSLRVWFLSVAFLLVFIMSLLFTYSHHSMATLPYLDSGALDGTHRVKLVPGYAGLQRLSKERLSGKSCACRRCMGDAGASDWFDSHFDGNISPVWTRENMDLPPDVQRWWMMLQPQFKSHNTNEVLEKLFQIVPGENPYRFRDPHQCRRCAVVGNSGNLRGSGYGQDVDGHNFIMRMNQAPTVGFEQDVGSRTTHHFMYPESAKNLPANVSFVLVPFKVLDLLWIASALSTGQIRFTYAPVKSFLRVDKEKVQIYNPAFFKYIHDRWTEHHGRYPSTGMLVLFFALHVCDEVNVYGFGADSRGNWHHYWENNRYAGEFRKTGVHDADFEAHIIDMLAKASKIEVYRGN
UniProt P42226: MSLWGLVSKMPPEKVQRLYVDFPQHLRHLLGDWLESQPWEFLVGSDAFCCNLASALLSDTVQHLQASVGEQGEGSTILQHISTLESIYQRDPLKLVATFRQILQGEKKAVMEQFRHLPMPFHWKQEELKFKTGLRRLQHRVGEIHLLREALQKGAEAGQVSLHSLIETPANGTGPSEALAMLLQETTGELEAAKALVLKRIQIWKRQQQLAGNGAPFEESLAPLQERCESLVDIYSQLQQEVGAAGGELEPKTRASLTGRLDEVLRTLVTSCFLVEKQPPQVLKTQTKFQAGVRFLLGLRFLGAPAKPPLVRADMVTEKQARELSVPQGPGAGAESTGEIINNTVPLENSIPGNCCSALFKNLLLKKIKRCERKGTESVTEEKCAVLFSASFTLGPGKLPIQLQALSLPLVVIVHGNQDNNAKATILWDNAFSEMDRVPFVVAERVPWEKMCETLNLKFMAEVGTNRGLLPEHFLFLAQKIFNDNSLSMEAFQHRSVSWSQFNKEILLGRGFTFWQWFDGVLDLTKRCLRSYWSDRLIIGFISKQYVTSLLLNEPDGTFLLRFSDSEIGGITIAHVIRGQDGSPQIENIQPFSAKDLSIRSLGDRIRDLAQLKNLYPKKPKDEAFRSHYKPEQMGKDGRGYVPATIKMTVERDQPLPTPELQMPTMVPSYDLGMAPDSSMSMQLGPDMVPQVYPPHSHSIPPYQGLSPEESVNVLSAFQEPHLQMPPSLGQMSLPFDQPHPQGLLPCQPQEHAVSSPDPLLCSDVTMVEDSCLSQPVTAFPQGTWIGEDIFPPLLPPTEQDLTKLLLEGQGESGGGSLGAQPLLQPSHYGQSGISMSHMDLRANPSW
UniProt Q8TCT7: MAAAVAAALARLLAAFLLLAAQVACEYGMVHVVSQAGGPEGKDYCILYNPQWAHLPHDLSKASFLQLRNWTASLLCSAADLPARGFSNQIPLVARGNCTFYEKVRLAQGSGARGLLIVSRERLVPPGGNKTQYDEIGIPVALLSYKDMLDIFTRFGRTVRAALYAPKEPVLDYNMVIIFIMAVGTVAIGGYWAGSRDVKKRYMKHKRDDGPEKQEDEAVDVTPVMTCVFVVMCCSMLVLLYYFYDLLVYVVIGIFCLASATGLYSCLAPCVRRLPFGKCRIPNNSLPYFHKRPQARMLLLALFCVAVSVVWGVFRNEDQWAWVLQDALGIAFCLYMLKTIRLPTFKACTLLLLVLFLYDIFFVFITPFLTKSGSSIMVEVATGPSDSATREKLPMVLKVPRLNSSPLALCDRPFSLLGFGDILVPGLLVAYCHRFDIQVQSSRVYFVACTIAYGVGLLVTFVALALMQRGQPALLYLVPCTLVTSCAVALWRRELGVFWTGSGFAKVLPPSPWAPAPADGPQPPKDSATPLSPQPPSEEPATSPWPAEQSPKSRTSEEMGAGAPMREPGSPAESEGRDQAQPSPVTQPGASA
UniProt Q01082, whole entry, looked up: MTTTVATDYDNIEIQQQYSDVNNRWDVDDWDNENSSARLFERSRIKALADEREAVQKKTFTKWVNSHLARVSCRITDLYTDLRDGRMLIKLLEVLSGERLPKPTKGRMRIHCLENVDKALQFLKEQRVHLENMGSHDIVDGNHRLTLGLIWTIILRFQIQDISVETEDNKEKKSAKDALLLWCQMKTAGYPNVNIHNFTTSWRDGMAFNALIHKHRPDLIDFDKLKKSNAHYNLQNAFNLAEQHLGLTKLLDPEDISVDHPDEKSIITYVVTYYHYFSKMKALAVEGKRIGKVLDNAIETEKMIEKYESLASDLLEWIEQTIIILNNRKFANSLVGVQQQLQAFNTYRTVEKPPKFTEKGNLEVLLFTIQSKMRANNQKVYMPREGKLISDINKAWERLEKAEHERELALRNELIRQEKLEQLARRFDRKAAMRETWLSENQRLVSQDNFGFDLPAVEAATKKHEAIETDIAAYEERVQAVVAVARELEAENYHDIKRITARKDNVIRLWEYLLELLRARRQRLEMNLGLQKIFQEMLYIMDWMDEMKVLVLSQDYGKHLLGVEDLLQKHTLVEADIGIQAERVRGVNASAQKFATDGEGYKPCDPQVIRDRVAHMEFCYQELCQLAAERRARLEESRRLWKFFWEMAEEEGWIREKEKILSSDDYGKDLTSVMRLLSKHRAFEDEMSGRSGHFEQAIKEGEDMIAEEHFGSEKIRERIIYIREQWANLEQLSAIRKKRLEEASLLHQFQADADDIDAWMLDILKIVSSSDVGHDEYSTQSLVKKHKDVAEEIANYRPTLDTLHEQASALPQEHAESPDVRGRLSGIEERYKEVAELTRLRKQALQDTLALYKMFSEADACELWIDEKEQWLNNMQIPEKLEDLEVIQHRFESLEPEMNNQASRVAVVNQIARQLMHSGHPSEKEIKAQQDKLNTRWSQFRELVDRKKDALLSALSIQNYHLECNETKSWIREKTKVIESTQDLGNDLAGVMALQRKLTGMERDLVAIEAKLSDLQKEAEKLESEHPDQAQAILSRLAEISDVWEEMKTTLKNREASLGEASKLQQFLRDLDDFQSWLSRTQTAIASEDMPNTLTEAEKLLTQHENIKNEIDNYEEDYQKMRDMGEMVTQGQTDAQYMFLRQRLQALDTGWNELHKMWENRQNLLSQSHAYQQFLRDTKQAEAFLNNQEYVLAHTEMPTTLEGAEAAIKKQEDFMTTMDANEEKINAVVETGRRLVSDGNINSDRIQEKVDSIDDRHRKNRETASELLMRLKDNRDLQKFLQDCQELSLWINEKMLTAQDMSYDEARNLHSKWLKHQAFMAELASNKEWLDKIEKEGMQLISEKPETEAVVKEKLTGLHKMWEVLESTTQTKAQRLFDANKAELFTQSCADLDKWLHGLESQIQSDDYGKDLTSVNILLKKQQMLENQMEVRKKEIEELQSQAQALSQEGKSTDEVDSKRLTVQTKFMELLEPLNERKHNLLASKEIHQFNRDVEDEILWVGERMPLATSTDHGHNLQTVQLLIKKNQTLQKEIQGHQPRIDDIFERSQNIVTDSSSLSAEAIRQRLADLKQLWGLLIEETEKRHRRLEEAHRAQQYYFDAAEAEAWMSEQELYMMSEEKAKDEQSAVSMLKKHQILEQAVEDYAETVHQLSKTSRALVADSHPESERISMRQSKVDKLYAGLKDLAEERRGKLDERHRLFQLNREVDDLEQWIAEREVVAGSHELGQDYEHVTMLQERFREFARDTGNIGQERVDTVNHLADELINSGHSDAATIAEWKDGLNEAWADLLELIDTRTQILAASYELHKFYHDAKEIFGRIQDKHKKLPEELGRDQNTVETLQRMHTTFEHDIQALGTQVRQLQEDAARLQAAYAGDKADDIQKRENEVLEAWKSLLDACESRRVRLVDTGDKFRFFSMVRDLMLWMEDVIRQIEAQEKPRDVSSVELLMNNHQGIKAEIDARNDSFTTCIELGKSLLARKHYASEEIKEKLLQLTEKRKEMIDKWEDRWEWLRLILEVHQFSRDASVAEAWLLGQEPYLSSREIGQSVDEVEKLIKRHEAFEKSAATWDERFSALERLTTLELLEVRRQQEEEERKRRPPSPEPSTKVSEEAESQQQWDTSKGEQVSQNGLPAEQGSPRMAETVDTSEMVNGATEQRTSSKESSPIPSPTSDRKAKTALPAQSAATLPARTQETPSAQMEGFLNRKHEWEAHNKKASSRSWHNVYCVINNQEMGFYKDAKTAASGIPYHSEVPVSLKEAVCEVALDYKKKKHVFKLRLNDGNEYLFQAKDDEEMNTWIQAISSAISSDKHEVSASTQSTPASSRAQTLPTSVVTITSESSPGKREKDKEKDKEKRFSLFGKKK
UniProt Q9Y657, whole entry, looked up: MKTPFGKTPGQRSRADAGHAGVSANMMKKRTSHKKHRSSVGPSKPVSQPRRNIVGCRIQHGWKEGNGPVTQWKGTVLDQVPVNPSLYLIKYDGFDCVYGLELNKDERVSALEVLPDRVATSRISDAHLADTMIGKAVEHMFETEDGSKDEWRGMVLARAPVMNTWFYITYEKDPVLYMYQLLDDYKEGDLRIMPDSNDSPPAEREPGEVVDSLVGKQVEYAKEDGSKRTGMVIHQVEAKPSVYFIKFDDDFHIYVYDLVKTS

Columns and labels:
Assay in all cases: log2 fold change, soluble protein after heating vs DMSO (PISA); higher = thermal stabilisation; K562 lysate, 10 uM; active = over 0.2 and 3.5 SD of the protein, either way, in both replicates (recomputed)
[1] = compound: C#Cc1cccc(Nc2ncnc3cc(OCCOC)c(OCCOC)cc23)c1 [erlotinib]
Procedure, shortened: (§1)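 Log-two fold change in thermal stability relative to solvent controls is reported from duplicates. For each sample, crude K562 extract from dounce-homogenised pellets in PBS pH 7.4 with 1 mM MgCl2, at 1 mg/mL protein, was treated with 10 μM compound for 30 min. Aliquots heated for 3 min across 48°C-58°C were pooled, brought to 0.5% NP-40 at 4°C and cleared at 21,000xg for 90 min. The supernatant was quantified by TMTpro 16plex LC-MS/MS with channel sums equalised.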

[2] = compound: C/C(=N\NC(=O)C1=CC(=CC=C1)S(=O)(=O)N2CCOCC2)/C3=C(C=CC(=C3)Cl)O
Procedure, shortened: as §1

[3] = compound: C1=CC(=CC=C1C2=NC3=C(N2)C=C(C=C3)C(=O)N)OC4=CC=C(C=C4)Cl
Procedure, shortened: as §1

[4] = compound: C1=CC2=C(C=CC(=C2)/C=C\3/C(=O)NC(=NCC4=CC=CS4)S3)N=C1
Procedure, shortened: as §1

[5] = compound: C1=CC=C2C(=C1)C3=NNC4=CC=CC(=C43)C2=O
Procedure, shortened: as §1

[6] = compound: C1CCN(C1)C(=O)NC2=CC=CC(=C2)NC3=NC=C(C(=N3)NCCC4=CN=CN4)Br
Procedure, shortened: as §1

[7] = compound: C1CN(CCC1(CC2=CC=C(C=C2)Cl)N)C3=NC=NC4=C3C=CN4
Procedure, shortened: as §1

[8] = compound: C1=CC=C(C=C1)C2=NC(=C(N2)C3=CC=NC=C3)C4=CC(=C(C=C4)Cl)O
Procedure, shortened: as §1

[9] = compound: C1COCCN1CCN2C3=CC=CC=C3N=C2NC(=O)C4=CC(=CC=C4)[N+](=O)[O-] [IRAK-1-4 Inhibitor I]
Procedure, shortened: as §1

[10] = compound: C1=CC2=NC=CN=C2C=C1/C=C/3\C(=O)NC(=O)S3
Procedure, shortened: as §1

Measured: log2 fold change

SPICE1 (UniProt Q8N0Z3)
inactive: [1] 0.163 | [2] -0.022 | [3] 0.178 | [4] 0.025 | [5] 0.285 | [6] 0.011 | [7] -0.114

SPOUT1 (UniProt Q5T280)
inactive: [1] 0.03 | [2] 0.049 | [3] 0.151 | [4] 0.021 | [8] -0.042 | [5] -0.038 | [6] -0.027 | [7] -0.038 | [9] 0.046

STAR (UniProt P49675)
inactive: [1] 0.207 | [2] 0.01 | [3] -0.192 | [4] -0.029 | [8] 0.042 | [5] -0.058 | [6] -0.125 | [7] -0.035 | [9] -0.031

Random excerpt: 2 records from the list.
SPICE1 (UniProt Q8N0Z3)
inactive: [1] 0.163 | [2] -0.022 | [3] 0.178 | [4] 0.025 | [5] 0.285 | [6] 0.011 | [7] -0.114

SPOUT1 (UniProt Q5T280)
inactive: [1] 0.03 | [2] 0.049 | [3] 0.151 | [4] 0.021 | [8] -0.042 | [5] -0.038 | [6] -0.027 | [7] -0.038 | [9] 0.046

Continued.

ST3GAL2 (UniProt Q16842)
inactive: [1] -0.06 | [2] -0.017 | [3] -0.061 | [4] 0.044 | [10] -0.14 | [8] -0.06 | [5] -0.037 | [6] -0.018 | [7] 0.022 | [9] 0.066

STAT6 (UniProt P42226)
inactive: [1] -0.004 | [2] 0.049 | [3] 0.043 | [4] -0.001 | [10] -0.019 | [8] -0.024 | [5] -0.04 | [6] -0.022 | [7] -0.007 | [9] -0.003

SPPL2B (UniProt Q8TCT7)
inactive: [1] -0.018 | [2] 0.035 | [3] 0 | [4] 0.024 | [10] 0.038 | [8] 0.038 | [5] -0.078 | [6] 0.025 | [7] 0.045 | [9] 0.067

SPTBN1 (UniProt Q01082)
inactive: [1] -0.007 | [2] 0.023 | [3] 0.006 | [4] -0.003 | [10] 0.007 | [8] 0.011 | [5] -0.016 | [6] -0.01 | [7] -0.015 | [9] -0.004

SPIN1 (UniProt Q9Y657)
inactive: [1] 0.024 | [2] 0 | [3] -0.021 | [4] -0.074 | [10] 0.079 | [8] 0.026 | [5] -0.156 | [6] 0.036 | [7] 0.023 | [9] -0.042
